# Measured values as given in PMC10176696.
# Results are given in words; binding and its absence hold for the method and conditions named. Binding seen in cells or lysates may run through a third protein. Some binding calls cover weakened binding; strength is not graded here. For part of these data: Where a sequence is shown, tags or fusion partners need not be part of it.
# T1: Flag-USP3 (UniProt Q9Y6I4)
# T1 sequence: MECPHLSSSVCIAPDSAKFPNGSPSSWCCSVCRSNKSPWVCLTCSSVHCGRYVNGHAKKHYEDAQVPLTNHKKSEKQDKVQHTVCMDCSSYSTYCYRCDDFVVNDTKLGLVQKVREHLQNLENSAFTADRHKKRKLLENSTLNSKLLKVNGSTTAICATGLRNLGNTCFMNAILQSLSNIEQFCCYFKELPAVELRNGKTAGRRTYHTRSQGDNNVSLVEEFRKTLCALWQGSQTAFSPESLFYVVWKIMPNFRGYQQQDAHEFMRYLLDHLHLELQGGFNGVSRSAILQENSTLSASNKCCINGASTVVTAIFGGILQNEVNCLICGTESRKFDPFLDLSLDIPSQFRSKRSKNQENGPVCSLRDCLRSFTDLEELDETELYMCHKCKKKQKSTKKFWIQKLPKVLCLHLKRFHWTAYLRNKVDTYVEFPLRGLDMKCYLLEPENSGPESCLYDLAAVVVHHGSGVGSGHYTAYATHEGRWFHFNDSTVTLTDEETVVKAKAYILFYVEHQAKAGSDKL
# T2: Myc-REST (UniProt Q13127)
# T2 sequence: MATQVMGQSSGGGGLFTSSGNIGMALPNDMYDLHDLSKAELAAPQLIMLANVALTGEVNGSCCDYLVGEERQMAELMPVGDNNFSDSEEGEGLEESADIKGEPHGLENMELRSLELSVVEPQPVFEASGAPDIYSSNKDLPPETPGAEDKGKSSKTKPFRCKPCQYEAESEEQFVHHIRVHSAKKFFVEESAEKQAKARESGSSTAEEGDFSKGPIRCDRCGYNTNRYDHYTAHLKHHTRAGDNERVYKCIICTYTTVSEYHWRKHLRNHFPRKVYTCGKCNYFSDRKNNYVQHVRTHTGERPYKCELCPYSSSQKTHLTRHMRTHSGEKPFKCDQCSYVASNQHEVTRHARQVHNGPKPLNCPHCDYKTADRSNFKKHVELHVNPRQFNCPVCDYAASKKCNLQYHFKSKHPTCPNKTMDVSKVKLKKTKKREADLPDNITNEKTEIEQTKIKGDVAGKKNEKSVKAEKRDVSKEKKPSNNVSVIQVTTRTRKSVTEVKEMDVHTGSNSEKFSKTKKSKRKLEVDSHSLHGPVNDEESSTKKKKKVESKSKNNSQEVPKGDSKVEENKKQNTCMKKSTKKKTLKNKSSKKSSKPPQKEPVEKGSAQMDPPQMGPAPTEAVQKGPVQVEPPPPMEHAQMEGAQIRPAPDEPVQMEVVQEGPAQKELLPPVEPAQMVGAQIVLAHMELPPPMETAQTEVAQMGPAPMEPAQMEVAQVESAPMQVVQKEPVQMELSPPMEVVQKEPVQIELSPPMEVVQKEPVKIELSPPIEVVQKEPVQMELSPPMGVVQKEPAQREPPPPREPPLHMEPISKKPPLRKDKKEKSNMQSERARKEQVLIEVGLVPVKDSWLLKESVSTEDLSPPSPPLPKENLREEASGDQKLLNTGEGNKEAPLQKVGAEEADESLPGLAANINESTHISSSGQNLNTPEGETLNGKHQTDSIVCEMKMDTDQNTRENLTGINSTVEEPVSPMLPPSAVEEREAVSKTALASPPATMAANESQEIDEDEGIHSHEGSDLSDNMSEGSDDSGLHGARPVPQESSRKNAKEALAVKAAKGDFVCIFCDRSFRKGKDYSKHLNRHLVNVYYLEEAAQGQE
# T3: endogenous USP3 (human (endogenous in SH-SY5Y)) (UniProt Q9Y6I4)
# T3 sequence: T1 sequence
# T4: endogenous REST (human (endogenous in SH-SY5Y)) (UniProt Q13127)
# T4 sequence: T2 sequence
# B1: Myc-REST (protein, UniProt Q13127 1-1097)
# chain: T2 sequence
# B2: Flag-USP3 (enzyme, UniProt Q9Y6I4 1-520)
# chain: T1 sequence
# B3: endogenous REST (protein, UniProt Q13127 1-1097)
# chain: T2 sequence
# B4: endogenous USP3 (enzyme, UniProt Q9Y6I4 1-520)
# chain: T1 sequence
# B5: Flag-USP19 (enzyme, UniProt O94966 1-1318)
# chain: MSGGASATGPRRGPPGLEDTTSKKKQKDRANQESKDGDPRKETGSRYVAQAGLEPLASGDPSASASHAAGITGSRHRTRLFFPSSSGSASTPQEEQTKEGACEDPHDLLATPTPELLLDWRQSAEEVIVKLRVGVGPLQLEDVDAAFTDTDCVVRFAGGQQWGGVFYAEIKSSCAKVQTRKGSLLHLTLPKKVPMLTWPSLLVEADEQLCIPPLNSQTCLLGSEENLAPLAGEKAVPPGNDPVSPAMVRSRNPGKDDCAKEEMAVAADAATLVDEPESMVNLAFVKNDSYEKGPDSVVVHVYVKEICRDTSRVLFREQDFTLIFQTRDGNFLRLHPGCGPHTTFRWQVKLRNLIEPEQCTFCFTASRIDICLRKRQSQRWGGLEAPAARVGGAKVAVPTGPTPLDSTPPGGAPHPLTGQEEARAVEKDKSKARSEDTGLDSVATRTPMEHVTPKPETHLASPKPTCMVPPMPHSPVSGDSVEEEEEEEKKVCLPGFTGLVNLGNTCFMNSVIQSLSNTRELRDFFHDRSFEAEINYNNPLGTGGRLAIGFAVLLRALWKGTHHAFQPSKLKAIVASKASQFTGYAQHDAQEFMAFLLDGLHEDLNRIQNKPYTETVDSDGRPDEVVAEEAWQRHKMRNDSFIVDLFQGQYKSKLVCPVCAKVSITFDPFLYLPVPLPQKQKVLPVFYFAREPHSKPIKFLVSVSKENSTASEVLDSLSQSVHVKPENLRLAEVIKNRFHRVFLPSHSLDTVSPSDTLLCFELLSSELAKERVVVLEVQQRPQVPSVPISKCAACQRKQQSEDEKLKRCTRCYRVGYCNQLCQKTHWPDHKGLCRPENIGYPFLVSVPASRLTYARLAQLLEGYARYSVSVFQPPFQPGRMALESQSPGCTTLLSTGSLEAGDSERDPIQPPELQLVTPMAEGDTGLPRVWAAPDRGPVPSTSGISSEMLASGPIEVGSLPAGERVSRPEAAVPGYQHPSEAMNAHTPQFFIYKIDSSNREQRLEDKGDTPLELGDDCSLALVWRNNERLQEFVLVASKELECAEDPGSAGEAARAGHFTLDQCLNLFTRPEVLAPEEAWYCPQCKQHREASKQLLLWRLPNVLIVQLKRFSFRSFIWRDKINDLVEFPVRNLDLSKFCIGQKEEQLPSYDLYAVINHYGGMIGGHYTACARLPNDRSSQRSDVGWRLFDDSTVTTVDESQVVTRYAYVLFYRRRNSPVERPPRAGHSEHHPDLGPAAEAAASQASRIWQELEAEEEPVPEGSGPLGPWGPQDWVGPLPRGPTTPDEGCLRYFVLGTVAALVALVLNVFYPLVSQSRWR
# Columns and labels:
# [1] = target: T1, Flag-USP3; assay: co-IP; HEK293 cells transfected with Flag-USP3 or Flag-USP19 and Myc-REST; lysates immunoprecipitated with anti-Flag or anti-Myc antibody, western blot; IP lysis buffer 25 mM Tris-HCl pH 7.4, 150 mM NaCl, 1 mM EDTA, 1% NP-40, 5% glycerol; 4 °C overnight
# [2] = target: T2, Myc-REST; assay: as above
# [3] = target: T3, endogenous USP3 (human (endogenous in SH-SY5Y)); assay: co-IP; endogenous proteins in SH-SY5Y lysate; immunoprecipitated with antibodies against USP3 or REST, western blot; IP lysis buffer 25 mM Tris-HCl pH 7.4, 150 mM NaCl, 1 mM EDTA, 1% NP-40, 5% glycerol; 4 °C overnight
# [4] = target: T4, endogenous REST (human (endogenous in SH-SY5Y)); assay: proximity ligation; Duolink in situ PLA in fixed SH-SY5Y cells with primary antibodies against USP3 and REST; single antibodies as controls
# [5] = target: T4, endogenous REST (human (endogenous in SH-SY5Y)); assay: co-IP; endogenous proteins in SH-SY5Y lysate; immunoprecipitated with antibodies against USP3 or REST, western blot; IP lysis buffer 25 mM Tris-HCl pH 7.4, 150 mM NaCl, 1 mM EDTA, 1% NP-40, 5% glycerol; 4 °C overnight
binder,measurement,setting,value
B1,binding,[1],binds
B2,binding,[2],binds
B3,binding,[3],binds
B4,binding,[4],binds
same,binding,[5],binds
B5,binding,[2],no binding
